Results on four molecules are retold here after patent publication US20190315873A1 (AGOMAB THERAPEUTICS, published 2019).

These are yes or no findings as the source states them, for the method shown. For some of these results: Binding can be weak; no strength is given.

Experiment [1] has as its target llama-human chimeric MET ECD CH4. Description: ELISA on MET chimera. (In general: In an ELISA, binding on a coated surface is turned into a signal by an enzyme label.)
The target of experiment [2] is llama-human chimeric MET ECD CH5. Description: ELISA on MET chimera.
Experiment [3] concerns the target llama MET ECD (llama). Description: ELISA on llama MET ECD.
Experiment [4] deals with T1, human MET ECD (human, UniProt P08581 25-932).
T1 construct: range 1-932; recombinant ECD made by standard protein engineering; also called hMET; human MET extracellular domain
Description: ELISA on MET ECD or chimera.

For experiment [5], the target named is human-llama chimeric MET ECD CH6. Description: ELISA on MET ECD or chimera.
Experiment [6] has as its target human-llama chimeric MET ECD CH7. Description: ELISA on MET ECD or chimera.
For experiment [7], the target named is llama-human chimeric MET ECD CH1. Description: ELISA on MET ECD or chimera.
Experiment [8] addresses llama-human chimeric MET ECD CH2. Description: ELISA on MET ECD or chimera.
Experiment [9] concerns the target llama-human chimeric MET ECD CH3. Description: ELISA on MET ECD or chimera.
The target of experiment [10] is T1, human MET ECD. Description: ELISA on MET ECD (FIG. 29).
In experiment [11] the target is T2, mouse MET ECD (mouse, UniProt P16056 25-931).
T2 construct: range 1-931; recombinant ECD; also called mMET; mouse MET extracellular domain
Description: ELISA on MET ECD (FIG. 29).

Experiment [12] deals with T1, human MET ECD. Description: ELISA on MET ECD.
Experiment [13] addresses T2, mouse MET ECD. Description: ELISA on MET ECD.
Experiment [14] deals with T1, human MET ECD. Description: ELISA: MET ECD immobilized (100 ng/well), mAb in human IgG1/lambda format in solution (0-40 nM), HRP anti-human Fc.
Experiment [15] deals with T2, mouse MET ECD. Described as above.
For experiment [16], the target named is human-llama chimeric MET ECD CH6. Description: ELISA on MET chimera.
Experiment [17] deals with human-llama chimeric MET ECD CH7. Description: ELISA on MET chimera.
Experiment [18] concerns the target llama-human chimeric MET ECD CH4. Description: ELISA on MET ECD or chimera.
The target of experiment [19] is llama-human chimeric MET ECD CH5. Description: ELISA on MET ECD or chimera.
The target of experiment [20] is llama-human chimeric MET ECD CH3. Description: ELISA on MET chimera.

B1: 71A3 llama-human chimeric mAb (human IgG1/lambda) (antibody, V domains shown)
VH: EVQLVESGGGLVQPGGSLRLSCAASGFSFKDYDITWVRQAPGKGLEWVSTITSRSGSTSYVDSVKGRFTISGDNAKNTLYLQMNSLKPEDTAVYYCAKVYATTWDVGPLGYGMDYWGKGTLVTVSS
VL: SYELTQPSALSVTLGQTAKITCQGGSLGSSYAHWYQQKPGQAPVLVIYDDDSRPSGIPERFSGSSSGGTATLTISGAQAEDEGDYYCQSADSSGNAAVFGGGTHLTVLQ
As for B1, the binding result in [1] was “no binding (tested: 0-20 nM)”; in [2], “no binding (tested: 0-20 nM)”; in [3], “no binding (tested: 0-20 nM)”; in experiment [4] it was “binds”; in experiment [5], “binds”; in experiment [6], “binds”. For the same molecule, the binding entry in experiment [7], in experiment [8], in experiment [9], in experiment [10], in experiment [11] and in [12] was “binds” in each case. The binding result in [13], in [14] and in experiment [15] was “binds” in each case.

B2: 76H10 llama-human chimeric mAb (human IgG1/lambda) (antibody, V domains shown)
VH: QLQLVESGGGLVQPGGSLRVSCTASGFTFNTYYMTWVRQAPGKGLEWVSDINSGGGTYYADSVKGRFTISRDNAKNTLYLQMNSLKPEDTALYYCVRVRIWPVGYDYWGQGTQVTVSS
VL: QAVVTQEPSLSVSPGGTVTLTCGLSSGSVTTSNYPGWFQQTPGQAPRTLIYNTNNRHSGVPSRFSGSISGNKAALTITGAQPEDEADYYCSLYTGSYTTVFGGGTHLTVLQ
With B2, the binding entry in experiment [16] is recorded as “no binding (tested: 0-20 nM)”; in experiment [17], “no binding (tested: 0-20 nM)”; in experiment [3], “no binding (tested: 0-20 nM)”; in experiment [4], “binds”; in experiment [7], “binds”; in experiment [8] it was “binds”. In addition, the binding entry in experiment [9], in experiment [18], in experiment [19], in experiment [10], in experiment [11] and in experiment [12] was “binds” throughout. The binding result in experiment [13], in experiment [14] and in [15] was “binds” in each case.

B3: 72F8 llama-human chimeric mAb (human IgG1/lambda) (antibody, V domains shown)
VH: ELQLVESGGGLVQPGGSLRLSCAASGFTFSNYVMSWVRQAPGKGLEWVSDTNSGGSTSYADSVKGRFTISRDNAKNTLYLQMNSLKPEDTALYYCARSFFYGMNYWGKGTQVTVSS
VL: QSALTQPPSLSASPGSSVRLTCTLSSGNNIGSYDISWYQQKAGSPPRYLLNYYTDSRKHQDSGVPSRFSGSKDASANAGLLLISGLQPEDEADYYCSAYKSGSYRWVFGGGTHVTVLQ
For B3, the binding entry in [20] was “no binding (tested: 0-20 nM)”; in experiment [1], “no binding (tested: 0-20 nM)”; in experiment [2], “no binding (tested: 0-20 nM)”; in experiment [3], “no binding (tested: 0-20 nM)”; in experiment [4] it was “binds”; in experiment [5], “binds”. Besides, the binding result in [6], in [7], in experiment [8], in [12] and in [13] was “binds” each time.

B4: 76G7 llama-human chimeric mAb (human IgG1/lambda) (antibody, V domains shown)
VH: QVQLVESGGNLVQPGGSLRLSCAASGFTFSNYYMSWVRQAPGKGLEWVSDIYSDGSTTWYSDSVKGRFTISRDNAKNTLSLQMNSLKSEDTAVYYCARVKIYPGGYDAWGQGTQVTVSS
VL: QAGLTQPPSVSGSPGKTVTISCAGNSSDVGYGNYVSWYQQFPGMAPKLLIYLVNKRASGITDRFSGSKSGNTASLTISGLQSEDEADYYCASYTGSNNIVFGGGTHLTVLQ
Regarding B4, the binding result is “no binding (tested: 0-20 nM)” in experiment [16]; “no binding (tested: 0-20 nM)” in experiment [17]; “no binding (tested: 0-20 nM)” in [3]; “binds” in experiment [4]; “binds” in [7]; “binds” in experiment [8]. The binding result in experiment [9], in experiment [18], in experiment [19], in [12] and in [13] was “binds” in each case.
